PubChem BioAssay AID493246, Drosophila RNAi Screening Center – 2011
Purpose: 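Genes fly cells need to grow and stay alive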 (primary screen). System: Drosophila Kc and S2R+ cells. Reagent: long dsRNA against Drosophila genes. Read-out: 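Raw, unnormalised count of remaining cells in each well; per-plate z-scores of cell number underlie the calls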. Direction: Kc cell number and S2R+ cell number: higher = more cells remaining. Call rule: 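Counted as a hit if cell number falls by a z-score of at least 3 within its plate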.
In all, the deposit lists about 21,000 reagents; this is a random part of those with a known target gene and a result. In the full data, 429 (2%) are marked active. 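Values are raw and not normalised between plates; calls rest on per-plate z-scores that were not deposited.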 Names joined by + are all predicted targets of the reagent. The record does not give: the amount of reagent, the time to read-out.

no.	gene	DRSC id	Kc cell number, rep 1	Kc cell number, rep 2	S2R+ cell number, rep 1	S2R+ cell number, rep 2	call
1	CG17343	DRSC02606	1.49e6	1.60e6	1.30e6	3.97e5	inactive
2	CG1840	DRSC19806	5.57e5		9.23e5		inactive
3	Schip1	DRSC02851	1.87e6	1.94e6	1.23e6	1.39e6	inactive
4	Arp1	DRSC14118	1.55e6	1.72e6	1.31e6	1.42e6	inactive
5	tey	DRSC11042	1.34e6	1.49e6	9.78e5	1.08e6	inactive
6	trn	DRSC11407	1.40e6	1.66e6	1.24e6	1.30e6	inactive
7	gb	DRSC15961	5.31e5		8.65e5		inactive
8	CG7945 + yellow-k	DRSC10851	1.67e6	1.61e6	1.21e6	1.38e6	inactive
9	CG2574	DRSC19862	1.57e6	1.69e6	1.18e6	1.31e6	inactive
10	ACXA	DRSC00844	1.55e6	1.59e6	1.24e6	1.39e6	inactive
11	CG4069	DRSC10396	1.35e6	1.53e6	1.16e6	1.10e6	inactive
12	CG3819	DRSC10378	1.66e6	1.65e6	1.26e6	1.47e6	inactive
13	SPE	DRSC15135	1.58e6	1.66e6	1.28e6	1.38e6	inactive
14	Rfk	DRSC15454	1.65e6	1.64e6	1.35e6	1.39e6	inactive
15	Cap-H2	DRSC14908	1.76e6	1.81e6	1.28e6	1.45e6	inactive
16	CG15841 (retired record) + Acp33A	DRSC01859	1.56e6	1.67e6	1.33e6	1.55e6	inactive
17	lbe	DRSC16985	1.45e6	1.45e6	1.04e6	1.16e6	inactive
18	CG4781	DRSC04488	1.81e6	1.88e6	1.29e6	1.27e6	inactive
19	CG8520	DRSC07206	1.34e6	1.41e6	1.15e6	1.20e6	inactive
20	CG9877	DRSC04587	1.91e6	1.97e6	1.33e6	1.33e6	inactive
21	snoRNA:U31:54Ec + snoRNA:snR38:54Eb + snoRNA:U27:54Eb + 8 more	DRSC06458	1.64e6	1.70e6	1.20e6	1.36e6	inactive
22	CG7886	DRSC16333	1.40e6	1.36e6	1.12e6	1.20e6	inactive
23	Arc42	DRSC14340	1.23e6	1.45e6	1.08e6	1.11e6	inactive
24	Arc42	DRSC15627	1.27e6	1.43e6	1.06e6	1.08e6	inactive
25	Dh44-R1	DRSC07172	1.44e6	1.53e6	1.15e6	1.12e6	inactive
26	CG31267	DRSC15748	1.40e6	1.58e6	1.03e6	1.17e6	inactive
27	CG11263	DRSC09832	1.36e6	1.40e6	1.34e6	1.45e6	inactive
28	CG3517	DRSC15492	1.19e6	1.26e6	1.05e6	1.12e6	inactive
29	SdhD	DRSC14215	1.45e6	1.59e6	8.94e5	1.03e6	inactive
30	Cpr65Av	DRSC09727	1.64e6	1.60e6	1.11e6	1.18e6	inactive
31	CG32069 + Blos2	DRSC10621	1.37e6	1.41e6	1.19e6	1.11e6	inactive
32	Nepl16	DRSC14650	1.45e6	1.50e6	9.66e5	1.03e6	inactive
33	Ada2b	DRSC16531	1.57e6	1.58e6	1.46e6	1.56e6	inactive
34	KrT95D	DRSC16725	1.46e6	1.50e6	1.15e6	1.19e6	inactive
35	CG32603	DRSC19409	1.80e6	1.80e6	1.11e6	1.19e6	inactive
36	atos	DRSC07318	1.56e6	1.59e6	1.27e6	1.40e6	inactive
37	CG12644 (retired record)	DRSC17850	1.79e6	1.85e6	1.14e6	1.32e6	inactive
38	Cp18	DRSC11120	1.29e6	1.27e6	1.12e6	1.17e6	inactive
39	Clc	DRSC11116	1.43e6	1.50e6	1.18e6	1.25e6	inactive
40	CG15127	DRSC05802	6.39e5		6.83e5		inactive
41	CG15127	DRSC06549	1.56e6	1.60e6	1.12e6	1.27e6	inactive
42	nxf2	DRSC10403	1.57e6	1.66e6	1.26e6	1.33e6	inactive
43	Myt1	DRSC11228	1.33e6	1.29e6	1.20e6	1.22e6	inactive
44	tbrd-2	DRSC07020	1.59e6	1.62e6	1.26e6	1.50e6	inactive
45	CG5001	DRSC00673	1.59e6	1.64e6	9.27e5	1.07e6	inactive
46	CG2790	DRSC04045	1.35e6	1.37e6	1.14e6	1.08e6	inactive
47	CG10600	DRSC02074	1.28e6	1.32e6	1.26e6	1.29e6	inactive
48	sa	DRSC11649	1.33e6	1.34e6	9.55e5	1.16e6	inactive
49	Cpr67B	DRSC10373	1.43e6	1.51e6	1.28e6	1.19e6	inactive
50	HDAC4	DRSC19780	1.67e6	1.62e6	1.11e6	1.22e6	inactive
51	Vmat + CG13330	DRSC06365	1.44e6	1.53e6	1.11e6	1.14e6	inactive
52	ear	DRSC15675	1.56e6	1.65e6	1.28e6	1.34e6	inactive
53	bib	DRSC03496	1.33e6	1.38e6	1.19e6	1.24e6	inactive
54	CG12301	DRSC09875	1.42e6	1.46e6	1.38e6	1.43e6	inactive
55	CG10053	DRSC12502	1.66e6	1.72e6	1.41e6	1.53e6	inactive
56	Ogg1	DRSC17738	5.97e5		8.95e5		inactive
57	S6KL	DRSC19349	1.66e6	1.68e6	1.15e6	1.25e6	inactive
58	shakB	DRSC20492	1.83e6	1.81e6	1.14e6	1.32e6	inactive
59	shakB	DRSC20585	1.51e6	1.55e6	1.08e6	1.18e6	inactive
60	CG34278	DRSC13208	1.61e6	1.75e6	1.10e6	1.29e6	inactive
61	AP-2sigma	DRSC15957	1.37e6	1.40e6	1.04e6	1.18e6	inactive
62	l(2)gd1	DRSC02773	1.31e6	1.37e6	1.08e6	1.17e6	inactive
63	Gyc88E	DRSC15547	1.25e6	1.33e6	1.10e6	1.27e6	inactive
64	CG1544	DRSC15036	4.79e5		8.14e5		inactive
65	ppk14	DRSC03238	1.59e6	1.64e6	1.19e6	1.53e6	inactive
66	CG1896	DRSC15397	4.89e5		7.35e5		inactive
67	Hs6st	DRSC14348	1.44e6	1.48e6	1.06e6	1.10e6	inactive
68	Hs6st	DRSC15182	1.20e6	1.22e6	9.73e5	1.22e6	inactive
69	Hs6st	DRSC15581	1.36e6	1.59e6	1.01e6	1.17e6	inactive
70	CG7840	DRSC03075	1.25e6	1.44e6	5.67e5	7.80e5	inactive
71	CG4301	DRSC19886	1.67e6	1.61e6	1.09e6	1.16e6	inactive
72	Brr2	DRSC10559	1.37e6	1.47e6	8.64e5	9.30e5	inactive
73	Gpdh2	DRSC04346	1.65e6	1.69e6	1.35e6	1.48e6	inactive
74	CG17002	DRSC04978	1.48e6	1.54e6	1.19e6	1.21e6	inactive
75	Slc25A46b	DRSC02888	1.56e6	1.63e6	1.26e6	1.42e6	inactive
